Results are given in words; binding and its absence hold for the method and conditions named. Binding seen in cells or lysates may run through a third protein. These calls come from enrichment with a bait or labelling near it, and not all partners need be listed.
Biological target: protein arginine deiminase type 4 (PAD4) (human (endogenous in GES-1)) (UniProt Q9UM07)
Assay: affinity purification with mass spectrometry; pull-down with a PAD4-specific antibody from GES-1 cells with or without H. pylori infection for 6 hours; LC-MS/MS

Sequences of proteins named here, by UniProt entry; tags and fusion partners are left off.
UniProt Q9UM07: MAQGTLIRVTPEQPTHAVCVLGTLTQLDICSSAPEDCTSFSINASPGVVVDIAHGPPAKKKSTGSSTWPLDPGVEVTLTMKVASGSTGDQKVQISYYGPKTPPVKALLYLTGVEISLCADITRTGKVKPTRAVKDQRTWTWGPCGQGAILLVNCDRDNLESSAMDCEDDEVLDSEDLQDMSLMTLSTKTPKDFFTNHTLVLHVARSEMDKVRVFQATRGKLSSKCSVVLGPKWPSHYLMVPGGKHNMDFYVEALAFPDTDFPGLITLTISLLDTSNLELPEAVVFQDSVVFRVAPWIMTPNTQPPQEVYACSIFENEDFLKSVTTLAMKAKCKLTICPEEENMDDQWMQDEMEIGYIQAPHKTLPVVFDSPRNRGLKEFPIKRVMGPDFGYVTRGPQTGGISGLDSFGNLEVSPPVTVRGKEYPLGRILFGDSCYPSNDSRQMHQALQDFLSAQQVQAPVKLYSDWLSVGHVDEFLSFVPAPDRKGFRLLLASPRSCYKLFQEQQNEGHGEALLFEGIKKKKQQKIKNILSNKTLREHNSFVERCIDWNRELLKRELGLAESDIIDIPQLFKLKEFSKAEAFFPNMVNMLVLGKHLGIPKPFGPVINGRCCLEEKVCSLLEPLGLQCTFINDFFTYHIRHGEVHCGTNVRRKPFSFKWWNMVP
UniProt P04264: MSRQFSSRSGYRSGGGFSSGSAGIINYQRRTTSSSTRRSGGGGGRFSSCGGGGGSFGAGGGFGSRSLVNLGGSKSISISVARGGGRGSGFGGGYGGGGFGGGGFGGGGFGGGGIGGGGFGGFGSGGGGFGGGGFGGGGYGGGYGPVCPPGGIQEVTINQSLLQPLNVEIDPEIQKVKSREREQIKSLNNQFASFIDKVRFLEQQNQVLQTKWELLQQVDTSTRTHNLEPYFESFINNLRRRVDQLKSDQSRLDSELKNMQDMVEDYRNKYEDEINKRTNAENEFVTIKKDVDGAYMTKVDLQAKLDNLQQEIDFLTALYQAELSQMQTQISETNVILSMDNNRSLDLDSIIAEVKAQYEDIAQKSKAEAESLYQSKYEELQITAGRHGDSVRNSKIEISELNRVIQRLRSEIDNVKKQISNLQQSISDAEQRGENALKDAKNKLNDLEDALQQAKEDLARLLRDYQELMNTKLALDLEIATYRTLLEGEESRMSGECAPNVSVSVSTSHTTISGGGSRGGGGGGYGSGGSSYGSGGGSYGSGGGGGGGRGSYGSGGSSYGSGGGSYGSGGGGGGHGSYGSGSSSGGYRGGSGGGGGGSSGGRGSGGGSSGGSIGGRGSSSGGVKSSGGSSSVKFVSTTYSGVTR

With “Keratin 1 (K1) (from UniProt P04264 1-644)” the binding was “binds”.
